Source: article PMC5425256
These are yes or no findings as the source states them, for the method shown. Binding seen in cells or lysates may run through a third protein. Some results given as binding are weak or reduced against the parent protein; the word gives no strength. For some assays here: Tags and fused reporters may be left off the sequences shown.

Chains of the proteins cited; added tags and fusions are not shown.
UniProt Q9NQU5: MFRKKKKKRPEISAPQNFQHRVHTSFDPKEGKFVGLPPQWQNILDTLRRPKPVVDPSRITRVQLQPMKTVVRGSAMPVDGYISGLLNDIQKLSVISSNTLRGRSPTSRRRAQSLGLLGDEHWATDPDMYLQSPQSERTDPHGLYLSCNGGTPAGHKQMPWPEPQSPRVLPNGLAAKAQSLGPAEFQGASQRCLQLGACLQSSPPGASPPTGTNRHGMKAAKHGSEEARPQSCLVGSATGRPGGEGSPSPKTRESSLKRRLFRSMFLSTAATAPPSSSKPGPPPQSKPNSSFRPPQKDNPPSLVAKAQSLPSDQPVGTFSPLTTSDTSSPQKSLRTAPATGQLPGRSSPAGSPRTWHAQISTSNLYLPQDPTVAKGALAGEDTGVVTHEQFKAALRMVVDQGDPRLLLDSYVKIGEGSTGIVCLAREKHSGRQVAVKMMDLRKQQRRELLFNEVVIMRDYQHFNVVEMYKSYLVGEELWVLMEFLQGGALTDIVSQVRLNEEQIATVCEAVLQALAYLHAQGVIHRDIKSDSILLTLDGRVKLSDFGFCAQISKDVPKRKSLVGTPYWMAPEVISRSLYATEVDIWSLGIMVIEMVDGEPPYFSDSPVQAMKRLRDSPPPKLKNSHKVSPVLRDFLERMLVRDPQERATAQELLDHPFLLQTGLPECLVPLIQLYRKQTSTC

B1: Myc-RhoD (pCB6 Myc-RhoD) (protein, UniProt P97348 1-210)
chain: MNASQVAGEEAPQSGHSVKVVLVGDGGCGKTSLMMVFAKGAFPESYSPTVFERYNATLQMKGKPVHLQIWDTAGQDDYDRLRPLFYPDANVLLLCFDVTNPNSFDNVSNRWYPEVTHFCKGVPIIVVGCKIDLRKDKVLVNNLRKKRLEPVTYHRGHDMARSVGAVAYLECSARLHDNVEAVFQEAAEVALSSRRHNFWRRITQNCCLAT
B2: RhoD from HeLa cell lysates (protein, UniProt O00212 1-210)
chain: MTAAQAAGEEAPPGVRSVKVVLVGDGGCGKTSLLMVFADGAFPESYTPTVFERYMVNLQVKGKPVHLHIWDTAGQDDYDRLRPLFYPDASVLLLCFDVTSPNSFDNIFNRWYPEVNHFCKKVPIIVVGCKTDLRKDKSLVNKLRRNGLEPVTYHRGQEMARSVGAVAYLECSARLHDNVHAVFQEAAEVALSSRGRNFWRRITQGFCVVT

Assays:
[1] = molecular target: GFP-Pak6 (pCB6-GFP-Pak6) (human) (UniProt Q9NQU5); test: co-IP
[2] = molecular target: recombinant GST-Pak6 (from pMW-GST-Pak6, E. coli) (human) (UniProt Q9NQU5); test: pull-down; only the target purified

| Binder | binding [1] | binding [2] |
| --- | --- | --- |
| B1 | binds |  |
| B2 |  | binds |
